These are yes or no findings as the source states them, for the method shown. In cells and extracts the contact can be indirect. Some entries that bind do so weakly or less than the wild type.

Sequences of proteins named here, by UniProt entry; tags and fusion partners are left off.
UniProt Q96B97: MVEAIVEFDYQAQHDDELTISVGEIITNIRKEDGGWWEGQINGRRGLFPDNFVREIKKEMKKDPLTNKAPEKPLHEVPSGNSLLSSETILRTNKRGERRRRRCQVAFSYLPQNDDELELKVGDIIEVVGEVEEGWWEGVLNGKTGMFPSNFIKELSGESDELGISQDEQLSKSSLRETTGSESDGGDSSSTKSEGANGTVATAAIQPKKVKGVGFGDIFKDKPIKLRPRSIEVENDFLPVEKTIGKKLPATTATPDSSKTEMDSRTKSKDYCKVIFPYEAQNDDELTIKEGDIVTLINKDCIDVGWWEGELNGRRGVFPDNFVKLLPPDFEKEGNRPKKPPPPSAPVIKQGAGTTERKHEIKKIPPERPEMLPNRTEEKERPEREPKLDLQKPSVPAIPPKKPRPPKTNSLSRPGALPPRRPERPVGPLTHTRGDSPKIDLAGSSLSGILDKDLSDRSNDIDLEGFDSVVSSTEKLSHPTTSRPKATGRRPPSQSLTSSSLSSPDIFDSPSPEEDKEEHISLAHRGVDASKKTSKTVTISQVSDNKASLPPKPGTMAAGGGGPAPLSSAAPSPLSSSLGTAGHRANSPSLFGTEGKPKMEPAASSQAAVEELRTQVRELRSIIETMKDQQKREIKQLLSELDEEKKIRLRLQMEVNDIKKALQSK

This assay deals with CIN85 (human (endogenous in HK-2)) (UniProt Q96B97). Nature of the assay: co-IP; endogenous proteins in HK-2 cells (normal-glucose and high-glucose conditions); antibodies anti-ARAP1 and anti-CIN85, IgG as negative control; performed as previously described (ref. 15).

B1: ARAP1 (protein, UniProt Q96P48 1-1450)
chain: MAEAGDAALSVAEWLRALHLEQYTGLFEQHGLVWATECQGLSDTRLMDMGMLLPGHRRRILAGLLRAHTSPAPAPRPTPRPVPMKRHIFRSPPVPATPPEPLPTTTEDEGLPAAPPIPPRRSCLPPTCFTTPSTAAPDPVLPPLPAKRHLAELSVPPVPPRTGPPRLLVSLPTKEEESLLPSLSSPPQPQSEEPLSTLPQGPPQPPSPPPCPPEIPPKPVRLFPEFDDSDYDEVPEEGPGAPARVMTKKEEPPPSRVPRAVRVASLLSEGEELSGDDQGDEEEDDHAYEGVPNGGWHTSSLSLSLPSTIAAPHPMDGPPGGSTPVTPVIKAGWLDKNPPQGSYIYQKRWVRLDTDHLRYFDSNKDAYSKRFISVACISHVAAIGDQKFEVITNNRTFAFRAESDVERKEWMQALQQAMAEQRARARLSSAYLLGVPGSEQPDRAGSLELRGFKNKLYVAVVGDKVQLYKNLEEYHLGIGITFIDMSVGNVKEVDRRSFDLTTPYRIFSFSADSELEKEQWLEAMQGAIAEALSTSEVAERIWAAAPNRFCADCGAPQPDWASINLCVVICKRCAGEHRGLGAGVSKVRSLKMDRKVWTETLIELFLQLGNGAGNRFWAANVPPSEALQPSSSPSTRRCHLEAKYREGKYRRYHPLFGNQEELDKALCAAVTTTDLAETQALLGCGAGINCFSGDPEAPTPLALAEQAGQTLQMEFLRNNRTTEVPRLDSMKPLEKHYSVVLPTVSHSGFLYKTASAGKLLQDRRAREEFSRRWCVLGDGVLSYFENERAVTPNGEIRASEIVCLAVPPPDTHGFEHTFEVYTEGERLYLFGLESAEQAHEWVKCIAKAFVPPLAEDLLARDFERLGRLPYKAGLSLQRAQEGWFSLSGSELRAVFPEGPCEEPLQLRKLQELSIQGDSENQVLVLVERRRTLYIQGERRLDFMGWLGAIQKAAASMGDTLSEQQLGDSDIPVIVYRCVDYITQCGLTSEGIYRKCGQTSKTQRLLESLRQDARSVHLKEGEQHVDDVSSALKRFLRDLPDGLFTRAQRLTWLEASEIEDEEEKVSRYRELLVRLPPVNRATVKALISHLYCVQCFSDTNQMNVHNLAIVFGPTLFQTDGQDYKAGRVVEDLINHYVVVFSVDEEELRKQREEITAIVKMRVAGTASGTQHAGDFICTVYLEEKKAETEQHIKVPASMTAEELTLEILDRRNVGIREKDYWTCFEVNEREEAERPLHFAEKVLPILHGLGTDSHLVVKKHQAMEAMLLYLASRVGDTKHGMMKFREDRSLLGLGLPSGGFHDRYFILNSSCLRLYKEVRSQRPWSGAPETSHRPEKEWPIKSLKVYLGVKKKLRPPTCWGFTVVHETEKHEKQQWYLCCDTQMELREWFATFLFVQHDGLVWPSEPSRVSRAVPEVRLGSVSLIPLRGSENEMRRSVAAFTADPLSLLRNV
On to B1, for which the binding entry was “binds”.

(Values after PMC7701572.)
